In article PMC10371097:
No constants are given. Whether binding was seen depends on the method and setting. In cells and extracts the contact can be indirect. These calls come from enrichment with a bait or labelling near it, and not all partners need be listed.

Chains of the proteins cited; added tags and fusions are not shown.
UniProt O14744: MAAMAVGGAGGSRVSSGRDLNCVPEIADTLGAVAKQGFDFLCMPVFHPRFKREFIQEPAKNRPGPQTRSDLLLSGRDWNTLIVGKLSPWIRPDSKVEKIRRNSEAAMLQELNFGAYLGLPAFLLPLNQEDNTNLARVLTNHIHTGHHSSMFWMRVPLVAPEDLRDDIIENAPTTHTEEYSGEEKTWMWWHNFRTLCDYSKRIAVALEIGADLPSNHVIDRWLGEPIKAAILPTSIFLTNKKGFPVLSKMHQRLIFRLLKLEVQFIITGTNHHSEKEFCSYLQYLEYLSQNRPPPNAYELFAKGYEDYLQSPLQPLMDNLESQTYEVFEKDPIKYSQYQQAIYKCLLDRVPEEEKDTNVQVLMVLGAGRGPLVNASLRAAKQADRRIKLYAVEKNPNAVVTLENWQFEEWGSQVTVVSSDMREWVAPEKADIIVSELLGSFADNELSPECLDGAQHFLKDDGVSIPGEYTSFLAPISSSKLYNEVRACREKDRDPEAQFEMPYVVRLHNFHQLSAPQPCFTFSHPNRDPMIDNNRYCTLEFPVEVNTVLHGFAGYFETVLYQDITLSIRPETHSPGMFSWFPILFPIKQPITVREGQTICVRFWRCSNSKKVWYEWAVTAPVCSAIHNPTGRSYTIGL
UniProt Q13283: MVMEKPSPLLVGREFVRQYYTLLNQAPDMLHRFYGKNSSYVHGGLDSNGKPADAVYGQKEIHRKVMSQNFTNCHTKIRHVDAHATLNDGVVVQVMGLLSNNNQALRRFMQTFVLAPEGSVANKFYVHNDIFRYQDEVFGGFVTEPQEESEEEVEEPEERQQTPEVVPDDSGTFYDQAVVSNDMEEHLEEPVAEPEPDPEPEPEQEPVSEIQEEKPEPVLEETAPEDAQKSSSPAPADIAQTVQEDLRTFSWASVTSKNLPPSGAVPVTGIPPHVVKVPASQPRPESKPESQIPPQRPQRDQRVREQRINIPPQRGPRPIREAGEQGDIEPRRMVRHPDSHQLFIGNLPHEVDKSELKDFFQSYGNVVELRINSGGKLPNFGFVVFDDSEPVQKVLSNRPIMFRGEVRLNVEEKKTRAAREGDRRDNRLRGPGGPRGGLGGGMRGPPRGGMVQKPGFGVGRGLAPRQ
UniProt Q96AE4: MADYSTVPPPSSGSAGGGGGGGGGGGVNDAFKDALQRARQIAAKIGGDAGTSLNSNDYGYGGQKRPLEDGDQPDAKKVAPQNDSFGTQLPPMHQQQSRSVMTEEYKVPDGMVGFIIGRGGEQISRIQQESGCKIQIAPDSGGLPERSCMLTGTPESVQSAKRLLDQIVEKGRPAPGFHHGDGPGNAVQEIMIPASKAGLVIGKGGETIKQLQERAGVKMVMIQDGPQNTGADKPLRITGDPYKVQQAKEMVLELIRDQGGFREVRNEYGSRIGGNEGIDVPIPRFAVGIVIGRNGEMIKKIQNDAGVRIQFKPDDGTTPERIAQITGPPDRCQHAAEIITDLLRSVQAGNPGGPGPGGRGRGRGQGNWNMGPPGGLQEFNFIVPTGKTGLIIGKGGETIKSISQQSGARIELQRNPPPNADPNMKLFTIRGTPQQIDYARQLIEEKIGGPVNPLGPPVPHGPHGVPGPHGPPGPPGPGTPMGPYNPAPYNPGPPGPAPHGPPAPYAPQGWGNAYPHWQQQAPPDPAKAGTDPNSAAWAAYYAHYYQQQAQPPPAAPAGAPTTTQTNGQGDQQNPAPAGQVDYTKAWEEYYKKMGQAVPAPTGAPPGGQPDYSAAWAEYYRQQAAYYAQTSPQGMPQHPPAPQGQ
UniProt P51116: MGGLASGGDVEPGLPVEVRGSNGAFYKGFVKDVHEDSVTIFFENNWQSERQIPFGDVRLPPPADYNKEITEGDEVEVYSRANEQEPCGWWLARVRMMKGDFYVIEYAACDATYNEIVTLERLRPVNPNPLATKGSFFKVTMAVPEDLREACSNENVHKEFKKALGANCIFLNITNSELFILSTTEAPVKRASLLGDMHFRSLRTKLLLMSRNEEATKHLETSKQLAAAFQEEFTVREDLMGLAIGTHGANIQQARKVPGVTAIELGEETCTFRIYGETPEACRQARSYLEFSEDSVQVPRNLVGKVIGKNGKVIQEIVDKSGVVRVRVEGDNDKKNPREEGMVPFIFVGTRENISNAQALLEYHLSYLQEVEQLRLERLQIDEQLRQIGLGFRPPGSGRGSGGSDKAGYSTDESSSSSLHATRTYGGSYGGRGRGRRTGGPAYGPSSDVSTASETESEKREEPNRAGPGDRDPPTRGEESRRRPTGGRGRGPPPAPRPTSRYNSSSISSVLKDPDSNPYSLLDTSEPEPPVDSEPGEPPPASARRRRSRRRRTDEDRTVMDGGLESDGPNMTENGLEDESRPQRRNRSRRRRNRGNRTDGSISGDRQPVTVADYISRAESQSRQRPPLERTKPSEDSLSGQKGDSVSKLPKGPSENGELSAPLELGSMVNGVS
UniProt P35637: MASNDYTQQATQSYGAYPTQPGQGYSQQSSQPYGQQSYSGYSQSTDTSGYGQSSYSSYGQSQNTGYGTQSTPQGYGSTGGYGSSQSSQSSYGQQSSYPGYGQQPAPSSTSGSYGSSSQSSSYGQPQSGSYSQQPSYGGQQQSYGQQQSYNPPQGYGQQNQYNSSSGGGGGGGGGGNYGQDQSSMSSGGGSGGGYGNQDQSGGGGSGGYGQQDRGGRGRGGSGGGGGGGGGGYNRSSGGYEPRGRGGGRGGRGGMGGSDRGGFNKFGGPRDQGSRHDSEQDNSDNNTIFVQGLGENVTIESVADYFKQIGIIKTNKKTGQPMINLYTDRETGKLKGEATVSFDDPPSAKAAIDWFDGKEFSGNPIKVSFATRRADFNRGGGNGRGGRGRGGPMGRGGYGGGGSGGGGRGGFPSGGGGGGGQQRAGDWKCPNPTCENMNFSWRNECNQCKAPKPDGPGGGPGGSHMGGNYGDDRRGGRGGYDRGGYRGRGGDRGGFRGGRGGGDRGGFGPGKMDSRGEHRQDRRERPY

B1: COPR5 (protein, UniProt Q9NQ92 1-184)
chain: MDLQAAGAQAQGAAEPSRGPPLPSARGAPPSPEAGFATADHSSQERETEKAMDRLARGTQSIPNDSPARGEGTHSEEEGFAMDEEDSDGELNTWELSEGTNCPPKEQPGDLFNEDWDSELKADQGNPYDADDIQESISQELKPWVCCAPQGDMIYDPSWHHPPPLIPYYSKMVFETGQFDDAED
B2: FAM120A (protein, UniProt Q9NZB2 1-1118)
chain: MGVQGFQDYIEKHCPSAVVPVELQKLARGSLVGGGRQRPPQTPLRLLVDADNCLHRLYGGFYTDWVSGGQWNHMLGYLAALAKACFGGNIELFVFFNGALEKARLHEWVKRQGNERQTAQQIVSHVQNKGTPPPKVWFLPPVCMAHCIRLALIRFHVKVAQSIEDHHQEVIGFCRENGFHGLVAYDSDYALCNIPYYFSAHALKLSRNGKSLTTSQYLMHEVAKQLDLNPNRFPIFAALLGNHILPDEDLASFHWSLLGPEHPLASLKVRAHQLVLPPCDVVIKAVADYVRNIQDTSDLDAIAKDVFQHSQSRTDDKVIRFKRAIGYYSATSKPMSFHPPHYLAARPGPFGMPGMVPPHVPPQMLNIPQTSLQAKPVAPQVPSPGGAPGQGPYPYSLSEPAPLTLDTSGKNLTEQNSYSNIPHEGKHTPLYERSSPINPAQSGSPNHVDSAYFPGSSTSSSSDNDEGSGGATNHISGNKIGWEKTGSHSEPQARGDPGDQTKAEGSSTASSGSQLAEGKGSQMGTVQPIPCLLSMPTRNHMDITTPPLPPVAPEVLRVAEHRHKKGLMYPYIFHVLTKGEIKIAVSIEDEANKDLPPAALLYRPVRQYVYGVLFSLAESRKKTERLAFRKNRLPPEFSPVIIKEWAAYKGKSPQTPELVEALAFREWTCPNLKRLWLGKAVEDKNRRMRAFLACMRSDTPAMLNPANVPTHLMVLCCVLRYMVQWPGARILRRQELDAFLAQALSPKLYEPDQLQELKIENLDPRGIQLSALFMSGVDMALFANDACGQPIPWEHCCPWMYFDGKLFQSKLLKASREKTPLIDLCDGQADQAAKVEKMRQSVLEGLSFSRQSHTLPFPPPPALPFYPASAYPRHFGPVPPSQGRGRGFAGVCGFGGPYGETVATGPYRAFRVAAASGHCGAFSGSDSSRTSKSQGGVQPIPSQGGKLEIAGTVVGHWAGSRRGRGGRGPFPLQVVSVGGPARGRPRGVISTPVIRTFGRGGRYYGRGYKNQAAIQGRPPYAASAEEVAKELKSKSGESKSSAMSSDGSLAENGVMAEEKPAPQMNGSTGDARAPSHSESALNNDSKTCNTNPHLNALSTDSACRREAALEAAVLNKEE

Molecular target: protein arginine methyltransferase 5 (PRMT5) (human (endogenous in MCF-7)) (UniProt O14744)
Test: affinity purification with mass spectrometry; MCF-7_RBKO lysates (NP-40 lysis buffer: 20 mM Tris-HCl pH 7.6, 150 mM NaCl, 0.1% NP-40, 1 mM EDTA) immunoprecipitated with a PRMT5 antibody or rabbit IgG control, overnight 4°C, protein-G Dyna beads; MS; enrichment log2FC ≥0.5 and FDR <0.05

| binding | Molecule |
| --- | --- |
| binds | G3BP1 (from UniProt Q13283 1-466) |
| binds | FUBP1 (from UniProt Q96AE4 1-644) |
| binds | FXR2 (from UniProt P51116 1-673) |
| binds | fused in sarcoma (FUS) (from UniProt P35637 1-526) |
| binds | B1 |
| binds | B2 |
